Some of the results follow. For some assays here: Construct or isoform of the protein are uncertain.

Some test systems named below: SERPINA6 (human); SERPINA7 (human); SERPINB1 (human); SF3A3 (human); SFT2D1 (human); SFXN1 (human); SFXN3 (human); SGTA (human); SIP1 (human); SIRT3 (human); SIVA1 (human); SKIL (human); SKP1A (human); SLC25A46 (human); SLC26A2 (human); SLC2A5 (human); SLC39A1 (human); SLC7A1 (human).
Assay in all cases: protein microarray (ProtoArray v5.0), streptavidin-Alexa Fluor 647
Holding throughout (details): 3'-biotin; 20 mM Tris (pH 7.5), 5 mM MgCl2, 100 mM KCl, 0.1% Tween-20, A/T-rich and random oligonucleotide blockers; temperature not stated; high values mean tight binding

Another test addresses T1, SERPINF1 (UniProt P36955).
T1 sequence: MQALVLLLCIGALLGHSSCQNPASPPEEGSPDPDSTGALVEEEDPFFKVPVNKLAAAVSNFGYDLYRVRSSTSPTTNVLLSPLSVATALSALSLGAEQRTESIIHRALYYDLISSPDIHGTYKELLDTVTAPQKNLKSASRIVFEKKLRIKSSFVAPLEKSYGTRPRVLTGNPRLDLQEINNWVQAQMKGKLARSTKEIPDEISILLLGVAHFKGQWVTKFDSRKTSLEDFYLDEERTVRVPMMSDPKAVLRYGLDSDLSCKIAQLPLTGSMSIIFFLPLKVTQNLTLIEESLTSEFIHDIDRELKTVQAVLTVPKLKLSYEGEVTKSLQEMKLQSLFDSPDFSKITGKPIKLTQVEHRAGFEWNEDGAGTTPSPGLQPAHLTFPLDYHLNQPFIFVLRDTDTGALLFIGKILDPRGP

The target in another test is T2, SLC1A6 (UniProt P48664).
T2 sequence: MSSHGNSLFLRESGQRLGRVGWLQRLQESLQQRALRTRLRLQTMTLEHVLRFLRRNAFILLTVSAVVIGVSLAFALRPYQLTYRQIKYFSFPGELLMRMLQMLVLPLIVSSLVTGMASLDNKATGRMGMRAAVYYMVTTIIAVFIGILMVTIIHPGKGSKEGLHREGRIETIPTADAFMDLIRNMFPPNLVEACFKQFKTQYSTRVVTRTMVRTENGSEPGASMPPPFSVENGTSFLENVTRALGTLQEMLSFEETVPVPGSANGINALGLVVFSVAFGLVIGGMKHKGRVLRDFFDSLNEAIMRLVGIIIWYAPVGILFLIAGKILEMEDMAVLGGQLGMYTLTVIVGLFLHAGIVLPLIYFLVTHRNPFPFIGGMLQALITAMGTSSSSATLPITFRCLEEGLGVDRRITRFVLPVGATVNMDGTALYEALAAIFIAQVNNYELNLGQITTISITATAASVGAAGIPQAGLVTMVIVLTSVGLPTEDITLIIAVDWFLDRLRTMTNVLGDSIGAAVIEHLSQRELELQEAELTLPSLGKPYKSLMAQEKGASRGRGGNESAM

With “GGGGACAGGGGTATGGGGAGGGG [G4-3 biotinylated (CtG)]”, the binding signal was -0.326 z-score in the test on SERPINA6 (human); -0.324 z-score in the test with SERPINA7 (human); -0.335 z-score in the test on SERPINB1 (human); 5.21 z-score in the test with SERPINF1; -0.333 z-score with SF3A3 (human); -0.321 z-score in the test with SFT2D1 (human). Also, the binding signal is -0.314 z-score with SFXN1 (human); -0.329 z-score in the test with SFXN3 (human); -0.321 z-score in the test on SGTA (human); -0.339 z-score in the test on SIP1 (human); -0.299 z-score with SIRT3 (human); -0.329 z-score with SIVA1 (human). The binding signal was -0.314 z-score in the test on SKIL (human); -0.341 z-score with SKP1A (human); -0.314 z-score with SLC1A6; -0.304 z-score in the test with SLC25A46 (human); -0.326 z-score with SLC26A2 (human); -0.326 z-score in the test on SLC2A5 (human). In addition, the results for the binding signal with SLC39A1 (human) and in the test with SLC7A1 (human) were -0.317 z-score and -0.336 z-score, respectively.

For the origin of these results see article PMC5996148.
